Consider 104 sequences from PubChem BioAssay AID1347423 (Functional Genomics Laboratory (NCATS/FGL), 2020).

Screen size: about 52,000 sequences; about 210 (0.4%) were called active.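 Rule for the calls: active = gene whose silencing raises cell survival under the drug, median off-target-corrected z-score across its silencing RNAs 2 or more; inactive = the rest.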 Some of the results follow.

The test in a line: Resistance to Poly (ADP-Ribose) Polymerase inhibitor: Gene Identification via Genome-wide siRNA Screen. The settings on record: mouse BRCA2 R2336H ES cells, olaparib, CellTiter-Glo viability; hits give high values. In a few lines: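 Genome-wide siRNA screen (3 siRNAs/gene, 20 nM) in mouse ES cells carrying hypomorphic BRCA2 R2336H; olaparib 500 nM added 48 h post-transfection, CellTiter-Glo viability 72 h later. Normalized to plate-median negative control; MAD z-scores, gene median, seed-adjusted.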
For orientation: In ATP-based viability assays light output follows the ATP content of the culture.
Take GCUCUGGUGAAUCCAUUGATT against Mid2: the z-score is inactive: -1.88.

“CGACUGUGGAAGGUUUGGUTT against 1700021K19Rik”: the z-score is inactive: 1.61.

In the case of GCAAAUUGUCAACAUACUUTT against Slc3a2, the z-score is inactive: -0.852.

For the sequence CCCUGUCUUUCCUAGGCCATT against BC025519, the z-score is inactive: -0.142.

On to “GCCCUUAUUUACUAACAUCTT against 1500015L24Rik”, for which the z-score is inactive: 1.35.

On to CCCAAUUAGGCUAUGCUAATT against Amfr, for which the z-score was inactive: 0.594.

Regarding GGUCAACCUUGAACUAAUATT against AW494914, the z-score was inactive: 0.231.

For the sequence GUUCCUGCUGAUCAAGGACTT against Ndnl2, the z-score was inactive: -1.51.

For the sequence GCAAAAGUAAGGAGUCUAUTT against Clcn4-2, the z-score is inactive: -2.95.

As to CGUCAAUAAUCUAUAUAGCTT against Blm, the z-score was inactive: 2.09.

For the sequence GGCACAGAACAUUUAAUUGTT against Mefv, the z-score is inactive: -0.522.

As to GGUGAUAAAAGAUUAGAAGTT against Nckipsd, the z-score was inactive: 0.47.

As to GCUUAUAAAAGACUUACUGTT against Sec24b, the z-score was inactive: -0.327.

For the sequence GGCACCUUAAUGCUGACUUTT against Sdc4, the z-score is inactive: -0.606.

With GGUUUAUGAGGAAAAGAAGTT against Svs6, the z-score was inactive: 0.206.

Take GGCAUAUAGAAACUGGUAATT against Npy6r: the z-score was inactive: 0.0679.

Consider CCAAGGCCAUCUCAUUUUCTT against Olfr749, for which the z-score is inactive: 0.227.

On to GGAAUGAAUUCAGAGCAUGTT against Mtap6, for which the z-score was inactive: 0.274.

Take GAUUCAGCCAUGUGGAACATT against Gm1313: the z-score was inactive: -0.324.

For the sequence CGAAAGCUUCCGAAUCUUCTT against Rshl1, the z-score is inactive: -0.318.

In the case of “GGAACAUGGACACCACACUTT against 2010013E08Rik”, the z-score is inactive: -1.95.

Regarding “GGAUUACCUAAAUUUAGGATT against A330009G12Rik”, the z-score was inactive: 0.148.

Take CGAAAAUCAAGGGAGCUCATT against Rnf19: the z-score is inactive: -0.128.

As for “GGGUGAGAGAUCCCAAGUUTT against 4931420D14Rik”, the z-score is inactive: -2.98.

Consider “GGAGCAAAGCUAAAUGUUGTT against 3732409C05Rik”, for which the z-score was inactive: 0.699.

In the case of “CCGGAUUGCACAUCAUCGATT against 4930413P14Rik”, the z-score was inactive: -1.29.

On to GGAAGGAUUGGGUUAUAGATT against Bat4, for which the z-score was inactive: -0.305.

For the sequence GAAAUGGAACGGUGCCACATT against Defb9, the z-score is inactive: 0.843.

As to GGCUCAAGCGAAAAGCAGATT against Serping1, the z-score was inactive: -0.778.

On to GGAUGAAGAGGAUUCAUUGTT against Pde4a, for which the z-score is inactive: 0.4.

For “GCAGAACAUCCGUUCUCAGTT against 1110061L23Rik”, the z-score is inactive: 1.49.

Turning to GACAAUGCAAACUUUUGGGTT against V1re7, the z-score is inactive: 0.404.

As to GGAGGUAAAGCUAAGUAAATT against Gtf3c2, the z-score is inactive: -0.641.

With GGAGUAGUAGCUAUUAUAUTT against Kctd9, the z-score was inactive: 0.823.

Consider GGUUCUGGCUCACAUUCACTT against H2-M3, for which the z-score was inactive: -1.08.

As for CGCGUGAAAGGUUUGAGAGTT against Cd24a, the z-score was inactive: 0.0936.

For the sequence GUUUGUCUAGCUUCAGAUGTT against Rims4, the z-score was inactive: -0.258.

As to “GGUGCAUGAUUUCAGAAUATT against E430018M08Rik”, the z-score is inactive: 0.847.

Take GGUCUCAAGUUUUACAUUCTT against Prss35: the z-score is inactive: 0.751.

Take GCUUUUAGGGAUUAUUCAGTT against Zfp606: the z-score is inactive: -0.812.

On to CCCAUCGAUCCAUCACAUUTT against Olfr63, for which the z-score is inactive: 0.257.

GGUAGUCACUAUCCUGAUUTT against Olfr1086: the z-score is inactive: -0.188.

For the sequence CCUGAUAGUCUUGAAGAUGTT against Orm2, the z-score was inactive: 0.102.

GGCUCGAGAGAAGAAGUACTT against Gjb5: the z-score was inactive: 1.43.

Turning to CCCUAAAGAGUGGGAUGUATT against Pi15, the z-score is inactive: -0.335.

Regarding GCUUUUCAGUAACUGUCAGTT against Ccrl2, the z-score was inactive: -0.38.

Turning to GGCCUGCUAUAUGCAUUCCTT against Krtap12-1, the z-score is inactive: 1.1.

In the case of GGCUUAUCAGUCCAUGAAGTT against BC022224, the z-score was inactive: 1.93.

With GGACAAUGAGCUUGAAUACTT against Ccne1, the z-score is inactive: 2.81.

For the sequence “GGUGCCAAUCCUUUGGACATT against 4930590J08Rik”, the z-score is inactive: -0.641.

For GGGAAAACUUGGAUAUUCUTT against AW146242, the z-score is inactive: -0.747.

As for “GCUGACCCAGCUAUGUACUTT against 4930519N13Rik”, the z-score is inactive: -0.26.

As to GGAUUGCAUUAGGAAAGAATT against Fancl, the z-score is inactive: 0.12.

In the case of GCUUUGCAAUUCACAGGGATT against Abpa, the z-score is inactive: 0.746.

For the sequence GGACACACUCUACUUCCCATT against Mrgprg, the z-score is inactive: 0.474.

GGAGUGCAACAAGAAGUUCTT against Klf13: the z-score is inactive: 0.175.

For GGAACUUGAUCAAGAAAAUTT against Matr3, the z-score is inactive: 0.635.

As to GGUUAUGUGUUCCAUAGAUTT against Pcdhb13, the z-score is inactive: 1.82.

As for GGAGAAAAUUUUCACCACUTT against Slc25a24, the z-score was inactive: 0.944.

Take GGUUCUGACCCUUGGUUAUTT against V1rh14: the z-score was inactive: 0.0393.

Consider GCAAUGGAACCACCUCUGATT against Zic5, for which the z-score is inactive: 1.

For “GCUGAACAUUAGCUUCAAUTT against 4921529O18Rik”, the z-score was inactive: 0.269.

As for GGCGUGUCUUGAUAGAAAUTT against Mtl5, the z-score is inactive: -0.176.

With GGAUAAUGUUGUCUGUCUATT against C87860, the z-score is inactive: -1.24.

Regarding GCGACACAUUCGAUCUCAGTT against Evi1, the z-score is inactive: 0.291.

In the case of CCACAUGUCCAAUCAGAAUTT against Eef2k, the z-score was inactive: 0.207.

With GGUUGUCUUUCUACUCGGGTT against Ppap2a, the z-score was inactive: -0.759.

Consider CCUAGGUGUCGUACACAAATT against Galns, for which the z-score was inactive: -0.335.

Turning to UAAAUGAGCUCGUAAUCUUTT against Olfr874, the z-score was inactive: 1.03.

Turning to GGAGGUAGAGAUGUCCACCTT against Serpinb6b, the z-score is inactive: -0.783.

Turning to GUACUACAUGGAUCUCAAGTT against Pura, the z-score was inactive: 1.31.

Turning to CGUUAGCAGGCAACAAAUCTT against Cyp2d13, the z-score is inactive: -2.18.

Turning to GGAACAGUUCCUUGUGGUUTT against Uqcrh, the z-score is inactive: -0.125.

For the sequence GCACUUCUCAGUCUAUAACTT against Gm773, the z-score was inactive: -0.386.

CCGAUUCGUUGGUAUUAACTT against Zadh2: the z-score was inactive: -0.633.

Take CGUACCACACGAUGAAUAGTT against Pou4f1: the z-score was inactive: -0.913.

Turning to GCAGUUCUGAAUCAUUAAGTT against Pot1, the z-score was inactive: 1.08.

For the sequence CGAAGAUUACCUUUCAAGATT against Siat7c, the z-score was inactive: 0.328.

For CCCAGUGUACUUGUCAUUUTT against Rhob, the z-score is inactive: 0.0878.

Take GCCUUGAACUAUGCAUAGATT against Eno2: the z-score is inactive: -1.39.

Consider CCUCUUAGCUAGAUCUUACTT against Smu1, for which the z-score is inactive: -2.99.

In the case of “GCCAGUGUGUAUCAAAAAATT against 1110011K10Rik”, the z-score was inactive: 0.869.

Regarding GGGCUACGAUGUGGAGUUUTT against Traf6, the z-score was inactive: 0.723.

Take GCAGCUACUGUGUUACAAATT against AI173486: the z-score is inactive: 1.04.

As for “CCGAGACAUAAAUUUUCCATT against C330003B14Rik”, the z-score is inactive: 1.25.

Regarding GCUCCACUGAUACUGUUGUTT against Cyp4a10, the z-score was inactive: 0.424.

CCCAAUAAUGAGAAGCGGCTT against Sh2d1c: the z-score is inactive: 0.997.

With “GGAAAGUUCCAAGUUACCATT against C530009C10Rik”, the z-score is inactive: -0.495.

Take GUGAUAAACCUGGGACACATT against Lyl1: the z-score was inactive: -0.88.

For “GGACCUUCUUCUGUCCCUUTT against C130022P09Rik”, the z-score is inactive: -2.07.

Regarding “GGUGUGUUAAGGUUUUUAATT against 2900024D24Rik”, the z-score is inactive: 0.679.

With CCUCUAAAUAGAGGAUAAGTT against Zfp467, the z-score is inactive: 1.19.

In the case of GCCUCUCGUGAAGAACAUATT against Cdkl1, the z-score was inactive: -0.131.

As to CCAAAAACUGGGAGUUCGUTT against Olfr513, the z-score was inactive: 0.713.

On to “GGCUAUUUAUUGCAUUCUCTT against 4933416E05Rik”, for which the z-score is inactive: -0.152.

Consider GGGAAGGACCUCAUUCAACTT against Butr1, for which the z-score was inactive: 0.11.

Regarding GGACAUUUCCUCGCUUGACTT against L3mbtl2, the z-score is inactive: -1.16.

“GGACGUACAUGAUGAUGUUTT against A930008A22Rik”: the z-score is inactive: -2.54.

In the case of CAGGCUGGUUACUUUGGCUTT against Tmhs, the z-score was inactive: -2.19.

Regarding “GGUGGUUUUUUGUUGUUGUTT against B230384L07”, the z-score was inactive: -0.53.

Consider GGAGCUGUACGGCAAGAUCTT against Rgs19ip1, for which the z-score is inactive: -1.08.

Regarding GGAGUUUCUCAGUGAAGGATT against Traf4, the z-score was inactive: -2.22.

As to CGUGAAGAUUCUUAAGGCGTT against Ppil1, the z-score is inactive: 1.52.

Take GGUGUAUUAAAAUGUCAGUTT against Marveld2: the z-score was inactive: 1.48.
